The supplement of paper PMC10849652
The other results are listed elsewhere or left out.

By UniProt entry, the sequences of proteins in these tests, tags left out. Where a name states a change or a piece, a line headed by the entry shows the natural chain unless it says otherwise.
UniProt P35443: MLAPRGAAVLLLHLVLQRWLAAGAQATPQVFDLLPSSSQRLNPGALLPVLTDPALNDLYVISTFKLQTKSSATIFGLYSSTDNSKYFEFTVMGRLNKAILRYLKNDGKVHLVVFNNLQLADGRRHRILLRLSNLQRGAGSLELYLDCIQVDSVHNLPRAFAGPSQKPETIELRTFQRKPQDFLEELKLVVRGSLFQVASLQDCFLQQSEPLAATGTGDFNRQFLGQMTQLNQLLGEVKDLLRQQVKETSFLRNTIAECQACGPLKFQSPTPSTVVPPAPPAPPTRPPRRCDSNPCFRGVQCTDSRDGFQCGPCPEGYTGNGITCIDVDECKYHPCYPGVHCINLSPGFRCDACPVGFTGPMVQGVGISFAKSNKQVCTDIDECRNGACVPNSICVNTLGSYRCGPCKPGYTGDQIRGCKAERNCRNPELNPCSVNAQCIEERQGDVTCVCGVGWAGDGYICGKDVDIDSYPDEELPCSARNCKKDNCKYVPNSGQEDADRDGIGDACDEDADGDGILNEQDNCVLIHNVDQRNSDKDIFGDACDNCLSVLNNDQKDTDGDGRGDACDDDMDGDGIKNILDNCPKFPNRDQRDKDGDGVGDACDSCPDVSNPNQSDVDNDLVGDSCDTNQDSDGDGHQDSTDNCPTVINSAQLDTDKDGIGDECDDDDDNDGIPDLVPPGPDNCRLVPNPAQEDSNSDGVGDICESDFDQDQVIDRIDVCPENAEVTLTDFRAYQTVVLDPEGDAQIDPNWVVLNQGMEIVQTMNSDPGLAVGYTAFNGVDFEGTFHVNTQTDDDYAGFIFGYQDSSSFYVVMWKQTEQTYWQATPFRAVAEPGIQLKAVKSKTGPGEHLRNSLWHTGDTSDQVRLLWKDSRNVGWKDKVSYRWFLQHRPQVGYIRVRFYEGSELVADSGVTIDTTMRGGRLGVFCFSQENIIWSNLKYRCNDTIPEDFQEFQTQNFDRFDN
UniProt Q9BSF4: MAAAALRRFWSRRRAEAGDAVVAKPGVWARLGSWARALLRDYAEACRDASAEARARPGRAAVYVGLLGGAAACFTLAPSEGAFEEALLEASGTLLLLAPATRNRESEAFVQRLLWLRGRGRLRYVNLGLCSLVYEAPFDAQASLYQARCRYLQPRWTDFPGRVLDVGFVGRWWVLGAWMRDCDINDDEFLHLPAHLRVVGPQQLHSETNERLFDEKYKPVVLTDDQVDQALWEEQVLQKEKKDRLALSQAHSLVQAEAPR
UniProt Q9ULP9: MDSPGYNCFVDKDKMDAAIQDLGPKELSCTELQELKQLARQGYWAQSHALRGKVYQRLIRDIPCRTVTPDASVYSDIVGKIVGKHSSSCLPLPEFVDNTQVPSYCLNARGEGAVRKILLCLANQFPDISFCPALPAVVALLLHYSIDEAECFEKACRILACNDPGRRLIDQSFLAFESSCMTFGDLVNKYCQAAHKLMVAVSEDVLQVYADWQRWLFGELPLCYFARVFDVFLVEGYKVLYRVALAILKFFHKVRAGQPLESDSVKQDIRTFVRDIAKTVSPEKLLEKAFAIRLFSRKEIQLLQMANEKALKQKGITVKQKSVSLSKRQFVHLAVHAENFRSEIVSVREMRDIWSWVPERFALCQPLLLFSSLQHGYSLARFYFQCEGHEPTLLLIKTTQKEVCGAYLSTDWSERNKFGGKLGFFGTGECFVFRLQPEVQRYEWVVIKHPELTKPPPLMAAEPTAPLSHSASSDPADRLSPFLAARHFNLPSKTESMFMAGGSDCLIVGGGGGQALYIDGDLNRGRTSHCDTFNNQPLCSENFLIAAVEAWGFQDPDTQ
UniProt O60220: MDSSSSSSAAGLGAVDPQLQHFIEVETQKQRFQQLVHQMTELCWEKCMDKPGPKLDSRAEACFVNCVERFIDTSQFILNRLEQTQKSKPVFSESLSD
UniProt Q9NU19: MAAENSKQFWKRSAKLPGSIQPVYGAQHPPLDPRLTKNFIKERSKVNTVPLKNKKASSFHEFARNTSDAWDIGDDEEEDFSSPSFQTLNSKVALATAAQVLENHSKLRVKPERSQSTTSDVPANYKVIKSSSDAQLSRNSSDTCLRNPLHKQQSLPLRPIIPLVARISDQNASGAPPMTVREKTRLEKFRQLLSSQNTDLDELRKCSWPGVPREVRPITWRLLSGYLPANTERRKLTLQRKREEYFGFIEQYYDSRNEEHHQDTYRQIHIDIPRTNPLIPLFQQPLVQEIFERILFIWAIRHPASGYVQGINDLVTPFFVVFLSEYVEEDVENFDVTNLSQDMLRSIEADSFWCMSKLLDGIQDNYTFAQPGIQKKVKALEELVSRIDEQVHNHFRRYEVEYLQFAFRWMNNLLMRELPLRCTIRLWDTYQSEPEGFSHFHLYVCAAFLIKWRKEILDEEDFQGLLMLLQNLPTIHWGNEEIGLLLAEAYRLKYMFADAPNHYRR
UniProt Q9Y6I9: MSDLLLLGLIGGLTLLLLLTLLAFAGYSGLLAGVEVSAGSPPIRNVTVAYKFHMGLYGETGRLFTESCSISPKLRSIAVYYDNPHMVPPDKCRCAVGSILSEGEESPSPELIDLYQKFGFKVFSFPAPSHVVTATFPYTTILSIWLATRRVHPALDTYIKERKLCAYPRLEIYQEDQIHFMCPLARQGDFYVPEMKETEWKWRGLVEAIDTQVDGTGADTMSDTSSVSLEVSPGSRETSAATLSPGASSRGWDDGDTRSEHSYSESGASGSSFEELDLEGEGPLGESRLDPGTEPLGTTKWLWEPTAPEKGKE
UniProt Q96J01: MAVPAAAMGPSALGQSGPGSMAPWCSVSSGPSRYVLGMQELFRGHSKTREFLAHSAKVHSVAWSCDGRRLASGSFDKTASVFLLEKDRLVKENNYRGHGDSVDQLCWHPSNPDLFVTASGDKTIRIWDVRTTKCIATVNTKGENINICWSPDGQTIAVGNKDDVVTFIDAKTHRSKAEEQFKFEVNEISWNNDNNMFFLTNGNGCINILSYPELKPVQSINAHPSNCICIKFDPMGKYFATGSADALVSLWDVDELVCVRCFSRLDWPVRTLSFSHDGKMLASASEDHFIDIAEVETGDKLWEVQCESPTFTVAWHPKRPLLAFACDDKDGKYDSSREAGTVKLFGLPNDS
UniProt Q04726: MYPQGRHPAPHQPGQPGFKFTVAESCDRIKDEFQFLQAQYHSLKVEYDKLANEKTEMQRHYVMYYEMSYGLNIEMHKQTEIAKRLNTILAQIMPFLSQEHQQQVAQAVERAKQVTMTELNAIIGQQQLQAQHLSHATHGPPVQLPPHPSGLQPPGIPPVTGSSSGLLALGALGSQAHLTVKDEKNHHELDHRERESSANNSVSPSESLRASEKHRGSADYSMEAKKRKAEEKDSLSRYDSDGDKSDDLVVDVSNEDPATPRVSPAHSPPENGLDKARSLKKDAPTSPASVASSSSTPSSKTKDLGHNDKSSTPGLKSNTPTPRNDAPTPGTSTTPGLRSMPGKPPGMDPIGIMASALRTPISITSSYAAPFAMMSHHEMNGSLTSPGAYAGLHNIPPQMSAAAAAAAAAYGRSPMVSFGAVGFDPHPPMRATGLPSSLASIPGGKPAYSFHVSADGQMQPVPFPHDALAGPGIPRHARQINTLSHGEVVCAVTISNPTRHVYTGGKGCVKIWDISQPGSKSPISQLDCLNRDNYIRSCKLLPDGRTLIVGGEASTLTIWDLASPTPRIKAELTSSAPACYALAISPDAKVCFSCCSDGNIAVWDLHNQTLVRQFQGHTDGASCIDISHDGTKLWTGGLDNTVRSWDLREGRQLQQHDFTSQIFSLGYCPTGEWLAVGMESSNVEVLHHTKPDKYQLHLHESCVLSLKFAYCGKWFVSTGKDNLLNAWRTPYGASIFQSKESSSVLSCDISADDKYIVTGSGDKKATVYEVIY
UniProt Q9UDY2: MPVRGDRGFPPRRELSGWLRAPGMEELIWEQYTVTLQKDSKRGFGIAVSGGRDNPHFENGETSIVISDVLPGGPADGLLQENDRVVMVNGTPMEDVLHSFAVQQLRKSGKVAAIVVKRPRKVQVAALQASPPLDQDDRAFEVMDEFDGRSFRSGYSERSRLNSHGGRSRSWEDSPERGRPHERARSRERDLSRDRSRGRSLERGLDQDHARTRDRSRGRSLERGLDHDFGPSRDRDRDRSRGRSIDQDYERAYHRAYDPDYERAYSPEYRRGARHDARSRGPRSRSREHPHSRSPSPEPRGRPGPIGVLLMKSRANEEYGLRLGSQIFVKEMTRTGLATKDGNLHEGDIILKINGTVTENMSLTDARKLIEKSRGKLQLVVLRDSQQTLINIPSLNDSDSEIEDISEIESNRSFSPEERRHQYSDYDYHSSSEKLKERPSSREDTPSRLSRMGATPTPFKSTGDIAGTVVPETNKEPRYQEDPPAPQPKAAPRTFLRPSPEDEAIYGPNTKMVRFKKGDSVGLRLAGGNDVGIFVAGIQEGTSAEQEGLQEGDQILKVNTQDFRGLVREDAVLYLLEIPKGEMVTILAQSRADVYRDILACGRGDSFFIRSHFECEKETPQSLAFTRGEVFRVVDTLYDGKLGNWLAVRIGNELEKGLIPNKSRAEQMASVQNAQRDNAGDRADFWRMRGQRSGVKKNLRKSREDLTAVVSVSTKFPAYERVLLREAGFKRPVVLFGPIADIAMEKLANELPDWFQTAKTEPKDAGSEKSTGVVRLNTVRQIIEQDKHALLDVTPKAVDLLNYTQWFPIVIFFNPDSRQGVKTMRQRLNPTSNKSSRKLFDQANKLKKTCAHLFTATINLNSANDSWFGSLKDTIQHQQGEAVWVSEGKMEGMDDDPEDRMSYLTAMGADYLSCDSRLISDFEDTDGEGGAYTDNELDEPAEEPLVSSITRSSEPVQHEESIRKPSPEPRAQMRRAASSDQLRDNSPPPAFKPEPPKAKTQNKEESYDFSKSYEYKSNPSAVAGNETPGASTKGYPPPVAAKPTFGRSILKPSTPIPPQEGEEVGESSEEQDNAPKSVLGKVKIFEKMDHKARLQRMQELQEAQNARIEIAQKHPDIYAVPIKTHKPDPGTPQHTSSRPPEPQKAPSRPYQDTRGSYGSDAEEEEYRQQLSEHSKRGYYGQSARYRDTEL
UniProt Q86W42: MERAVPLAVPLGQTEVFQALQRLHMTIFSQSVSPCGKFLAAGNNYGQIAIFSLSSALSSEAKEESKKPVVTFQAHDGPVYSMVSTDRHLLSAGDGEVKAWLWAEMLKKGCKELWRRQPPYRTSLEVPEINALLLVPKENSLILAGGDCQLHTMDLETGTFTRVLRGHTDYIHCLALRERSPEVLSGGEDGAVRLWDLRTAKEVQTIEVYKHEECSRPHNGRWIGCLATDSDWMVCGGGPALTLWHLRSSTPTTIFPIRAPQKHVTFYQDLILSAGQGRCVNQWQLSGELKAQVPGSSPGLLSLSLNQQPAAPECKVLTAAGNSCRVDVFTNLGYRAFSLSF
UniProt Q9UP52: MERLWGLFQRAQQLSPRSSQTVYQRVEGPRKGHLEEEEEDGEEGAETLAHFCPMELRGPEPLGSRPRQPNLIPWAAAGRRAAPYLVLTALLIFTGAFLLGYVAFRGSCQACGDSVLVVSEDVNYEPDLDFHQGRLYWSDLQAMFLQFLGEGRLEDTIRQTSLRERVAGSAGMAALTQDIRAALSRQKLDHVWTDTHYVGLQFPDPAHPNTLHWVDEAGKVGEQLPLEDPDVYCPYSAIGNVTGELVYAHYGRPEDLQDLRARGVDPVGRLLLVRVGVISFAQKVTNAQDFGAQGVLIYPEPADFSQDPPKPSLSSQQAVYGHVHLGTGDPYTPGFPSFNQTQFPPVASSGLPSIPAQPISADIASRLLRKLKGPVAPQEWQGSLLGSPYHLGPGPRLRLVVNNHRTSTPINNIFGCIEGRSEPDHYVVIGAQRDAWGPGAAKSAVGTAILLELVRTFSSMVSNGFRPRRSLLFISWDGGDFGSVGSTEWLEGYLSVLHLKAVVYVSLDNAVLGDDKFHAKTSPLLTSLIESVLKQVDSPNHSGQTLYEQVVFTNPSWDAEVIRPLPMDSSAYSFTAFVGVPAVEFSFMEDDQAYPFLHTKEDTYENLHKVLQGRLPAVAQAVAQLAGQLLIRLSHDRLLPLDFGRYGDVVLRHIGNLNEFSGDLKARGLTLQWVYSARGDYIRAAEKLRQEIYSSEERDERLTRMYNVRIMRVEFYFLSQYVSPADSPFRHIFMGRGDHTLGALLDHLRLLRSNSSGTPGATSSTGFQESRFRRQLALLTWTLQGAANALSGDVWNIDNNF
UniProt Q9Y4P3: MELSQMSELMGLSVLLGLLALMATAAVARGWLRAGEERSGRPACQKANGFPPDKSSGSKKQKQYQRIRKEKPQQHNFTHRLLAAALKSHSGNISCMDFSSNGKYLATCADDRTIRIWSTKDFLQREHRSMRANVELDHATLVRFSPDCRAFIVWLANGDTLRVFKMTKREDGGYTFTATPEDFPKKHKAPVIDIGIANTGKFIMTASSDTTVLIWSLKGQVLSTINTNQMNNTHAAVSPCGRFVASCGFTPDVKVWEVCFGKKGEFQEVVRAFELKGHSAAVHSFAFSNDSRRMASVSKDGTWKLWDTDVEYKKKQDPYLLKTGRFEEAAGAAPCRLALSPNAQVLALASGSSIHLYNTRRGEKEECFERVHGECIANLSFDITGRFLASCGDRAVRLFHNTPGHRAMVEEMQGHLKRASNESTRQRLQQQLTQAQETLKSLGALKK

How the values were obtained:
Assay in all cases: log2 fold change, soluble protein after heating vs DMSO (PISA); higher = thermal stabilisation; K562 cells, 10 uM, 30 min; active = over 0.2 and 3.5 SD of the protein, either way, in both replicates (recomputed)
[1] = compound: COC1=CC=C(C=C1)CN2C=CC3=C2C=C(C=C3)C(=O)NO
Procedure, shortened: (§1)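 K562 cells at 2×10^6 cells/mL were given 10 μM compound for 30 min. Aliquots then went through 3 min of heating across 48°C-58°C, were pooled, and were extracted in PBS with 0.5% NP-40 at 4°C, and the supernatant after 21,000xg for 90 min was quantified by TMTpro 16plex LC-MS/MS with channel sums equalised. Thermal stability relative to control samples, from duplicates, is given as log2 fold change.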

filanesib = compound: CON(C)C(=O)N1N=C(c2cc(F)ccc2F)S[C@@]1(CCCN)c1ccccc1 [filanesib]
Procedure, shortened: as §1

zotarolimus = compound: CO[C@H]1C[C@@H]2CC[C@@H](C)[C@@](O)(O2)C(=O)C(=O)N2CCCC[C@H]2C(=O)O[C@H]([C@H](C)C[C@@H]2CC[C@H](n3cnnn3)[C@H](OC)C2)CC(=O)[C@H](C)/C=C(\C)[C@@H](O)[C@@H](OC)C(=O)[C@H](C)C[C@H](C)/C=C/C=C/C=C/1C [zotarolimus]
Procedure, shortened: as §1

idasanutlin = compound: COc1cc(C(=O)O)ccc1NC(=O)[C@@H]1N[C@@H](CC(C)(C)C)[C@](C#N)(c2ccc(Cl)cc2F)[C@H]1c1cccc(Cl)c1F [idasanutlin]
Procedure, shortened: as §1

alisertib = compound: COc1cc(Nc2ncc3c(n2)-c2ccc(Cl)cc2C(c2c(F)cccc2OC)=NC3)ccc1C(=O)O [alisertib]
Procedure, shortened: as §1

[2] = compound: COc1cc2nc(-c3cc(F)ccc3O)nc(N[C@@H]3CNC[C@H]3C(C)(C)O)c2cc1OC
Procedure, shortened: as §1

gefitinib = compound: COc1cc2ncnc(Nc3ccc(F)c(Cl)c3)c2cc1OCCCN1CCOCC1 [gefitinib]
Procedure, shortened: as §1

[3] = compound: COc1cccc2cc(-c3nc([C@H]4CC[C@H](C(=O)O)CC4)n4ncnc(N)c34)[nH]c12
Procedure, shortened: as §1

lapatinib = compound: CS(=O)(=O)CCNCc1ccc(-c2ccc3ncnc(Nc4ccc(OCc5cccc(F)c5)c(Cl)c4)c3c2)o1 [lapatinib]
Procedure, shortened: as §1

pictilisib = compound: CS(=O)(=O)N1CCN(Cc2cc3nc(-c4cccc5[nH]ncc45)nc(N4CCOCC4)c3s2)CC1 [pictilisib]
Procedure, shortened: as §1

[4] = compound: CS(=O)(=O)c1ccc(-c2cnc(N)c(C(=O)Nc3ccccc3)n2)cc1
Procedure, shortened: as §1

crizotinib = compound: C[C@@H](Oc1cc(-c2cnn(C3CCNCC3)c2)cnc1N)c1c(Cl)ccc(F)c1Cl [crizotinib]
Procedure, shortened: as §1

[5] = compound: C[C@@H]1COCCN1C2=NC(=NC(=C2)C3(CC3)S(=O)(=O)C)C4=C5C=CNC5=CC=C4
Procedure, shortened: as §1

[6] = compound: C[C@H](C1=CC=C(C=C1)C(=O)NC2=C3C=CNC3=NC=C2)N
Procedure, shortened: as §1

duvelisib = compound: C[C@H](Nc1ncnc2nc[nH]c12)c1cc2cccc(Cl)c2c(=O)n1-c1ccccc1 [duvelisib]
Procedure, shortened: as §1

gandotinib = compound: Cc1cc(Nc2cc(CN3CCOCC3)c3nc(C)c(Cc4ccc(Cl)cc4F)n3n2)n[nH]1 [gandotinib]
Procedure, shortened: as §1

tozasertib = compound: Cc1cc(Nc2cc(N3CCN(C)CC3)nc(Sc3ccc(NC(=O)C4CC4)cc3)n2)n[nH]1 [tozasertib]
Procedure, shortened: as §1

[7] = compound: Cc1cc(SCc2sc(-c3ccc(C(F)(F)F)cc3)nc2C)ccc1OCC(=O)O
Procedure, shortened: as §1

doramapimod = compound: Cc1ccc(-n2nc(C(C)(C)C)cc2NC(=O)Nc2ccc(OCCN3CCOCC3)c3ccccc23)cc1 [doramapimod]
Procedure, shortened: as §1

ispinesib = compound: Cc1ccc(C(=O)N(CCCN)[C@@H](c2nc3cc(Cl)ccc3c(=O)n2Cc2ccccc2)C(C)C)cc1 [ispinesib]
Procedure, shortened: as §1

Measured: log2 fold change

THBS4 (UniProt P35443)
inactive: [1] -0.06 | filanesib 0.115 | zotarolimus -0.375 | idasanutlin 0.005 | alisertib -0.003 | [2] -0.081 | gefitinib -0.081 | [3] 0.265 | lapatinib -0.055 | pictilisib -0.25 | [4] -0.028 | crizotinib 0.163 | [5] 0.079 | [6] 0.082 | duvelisib -0.096 | gandotinib -0.262 | tozasertib -0.079 | [7] -0.273 | doramapimod -0.074 | ispinesib -0.117

TIMM21 (UniProt Q9BVV7)
inactive: [1] -0.038 | filanesib -0.171 | zotarolimus 0.03 | idasanutlin -0.078 | alisertib 0.054 | [2] -0.205 | gefitinib -0.006 | [3] 0.01 | lapatinib -0.008 | pictilisib 0.055 | [4] 0.02 | crizotinib -0.01 | [5] 0.042 | [6] -0.029 | gandotinib 0.04 | [7] 0.033 | doramapimod 0.02 | ispinesib -0.229

TIMM29 (UniProt Q9BSF4)
inactive: [1] -0.141 | filanesib 0.041 | zotarolimus -0.058 | idasanutlin -0.096 | alisertib 0.01 | [2] 0.021 | gefitinib 0.039 | [3] 0.073 | lapatinib 0.014 | pictilisib 0.051 | [4] 0.044 | crizotinib 0.08 | [5] 0.065 | [6] -0.033 | gandotinib -0.014 | [7] 0.02 | doramapimod 0.185 | ispinesib 0.033

TIA1 (UniProt P31483)
inactive: [1] 0.083 | filanesib 0.021 | zotarolimus -0.017 | idasanutlin 0.021 | alisertib -0.003 | [2] 0.108 | gefitinib 0.02 | [3] 0.04 | lapatinib -0.005 | pictilisib -0.046 | [4] 0.005 | crizotinib -0.021 | [5] 0.124 | [6] -0.072 | duvelisib 0.024 | gandotinib 0.03 | tozasertib -0.024 | [7] 0.043 | doramapimod -0.019 | ispinesib 0.013

TBC1D24 (UniProt Q9ULP9)
inactive: [1] 0.032 | filanesib -0.145 | zotarolimus 0.006 | idasanutlin -0.127 | alisertib -0.102 | [2] -0.028 | gefitinib 0.007 | [3] 0.05 | lapatinib 0.032 | pictilisib -0.082 | [4] 0.018 | crizotinib -0.235 | [5] 0.08 | [6] -0.014 | gandotinib -0.361 | [7] 0.073 | doramapimod 0.061 | ispinesib -0.218

TIMM8A (UniProt O60220)
inactive: [1] -0.124 | filanesib 0.055 | zotarolimus 0.103 | idasanutlin -0.026 | alisertib -0.074 | [2] -0.085 | gefitinib -0.015 | [3] 0 | lapatinib -0.063 | pictilisib 0.032 | [4] -0.036 | crizotinib 0.051 | [5] -0.069 | [6] -0.279 | duvelisib 0.28 | gandotinib 0.185 | tozasertib 0.046 | [7] -0.042 | doramapimod 0.006 | ispinesib 0.347

TBC1D22B (UniProt Q9NU19)
inactive: [1] 0.279 | filanesib -0.076 | zotarolimus 0.036 | idasanutlin -0.236 | alisertib -0.134 | [2] -0.005 | gefitinib 0.025 | [3] 0.043 | lapatinib 0.022 | pictilisib -0.006 | [4] -0.01 | crizotinib -0.147 | [5] -0.02 | [6] 0.013 | duvelisib -0.033 | gandotinib -0.087 | tozasertib 0.032 | [7] -0.011 | doramapimod 0.183 | ispinesib 0.074

TEX264 (UniProt Q9Y6I9)
inactive: [1] 0.07 | filanesib -0.169 | zotarolimus 0.059 | idasanutlin -0.076 | alisertib -0.042 | [2] 0.163 | gefitinib 0.164 | [3] -0.046 | lapatinib 0.421 | pictilisib 0.321 | [4] 0.361 | crizotinib 0.079 | [5] 0.064 | [6] 0.176 | gandotinib -0.059 | [7] -0.028 | doramapimod 0.039 | ispinesib -0.016

TESC (UniProt Q96BS2)
inactive: [1] 0 | filanesib 0.063 | zotarolimus 0.036 | idasanutlin 0.057 | alisertib 0.105 | [2] 0.249 | gefitinib 0.074 | [3] 0.087 | lapatinib -0.08 | pictilisib 0.12 | [4] -0.004 | crizotinib 0.068 | [5] 0.153 | [6] 0.029 | duvelisib 0.03 | gandotinib -0.076 | tozasertib 0.133 | [7] 0.091 | doramapimod -0.074 | ispinesib 0.056

THOC3 (UniProt Q96J01)
inactive: [1] 0.024 | filanesib -0.023 | zotarolimus 0.008 | idasanutlin 0.013 | alisertib -0.13 | [2] -0.003 | gefitinib 0.014 | [3] 0.025 | lapatinib 0.017 | pictilisib 0.048 | [4] 0.001 | crizotinib 0.026 | [5] 0.017 | [6] -0.108 | duvelisib -0.003 | gandotinib -0.036 | tozasertib 0.028 | [7] 0.019 | doramapimod -0.019 | ispinesib -0.044

TLE3 isoform 4 (UniProt Q04726)
inactive: [1] 0.027 | filanesib -0.08 | zotarolimus -0.011 | idasanutlin -0.014 | alisertib -0.048 | [2] -0.039 | gefitinib -0.005 | [3] -0.049 | lapatinib 0.022 | pictilisib -0.033 | [4] -0.022 | crizotinib 0.052 | [5] -0.03 | [6] -0.02 | duvelisib -0.033 | gandotinib -0.059 | tozasertib -0.011 | [7] -0.028 | doramapimod 0.005 | ispinesib 0.086

Taken from the listing (2 entries):
TIMM8A (UniProt O60220)
inactive: [1] -0.124 | filanesib 0.055 | zotarolimus 0.103 | idasanutlin -0.026 | alisertib -0.074 | [2] -0.085 | gefitinib -0.015 | [3] 0 | lapatinib -0.063 | pictilisib 0.032 | [4] -0.036 | crizotinib 0.051 | [5] -0.069 | [6] -0.279 | duvelisib 0.28 | gandotinib 0.185 | tozasertib 0.046 | [7] -0.042 | doramapimod 0.006 | ispinesib 0.347

TBC1D22B (UniProt Q9NU19)
inactive: [1] 0.279 | filanesib -0.076 | zotarolimus 0.036 | idasanutlin -0.236 | alisertib -0.134 | [2] -0.005 | gefitinib 0.025 | [3] 0.043 | lapatinib 0.022 | pictilisib -0.006 | [4] -0.01 | crizotinib -0.147 | [5] -0.02 | [6] 0.013 | duvelisib -0.033 | gandotinib -0.087 | tozasertib 0.032 | [7] -0.011 | doramapimod 0.183 | ispinesib 0.074

Carrying on:

THYN1 (UniProt Q9P016)
inactive: [1] -0.01 | filanesib -0.009 | zotarolimus 0.015 | idasanutlin -0.011 | alisertib -0.065 | [2] 0.035 | gefitinib 0.028 | [3] -0.007 | lapatinib -0.039 | pictilisib -0.032 | [4] -0.015 | crizotinib 0.061 | [5] 0.001 | [6] 0.011 | gandotinib 0.021 | [7] 0.087 | doramapimod -0.036 | ispinesib -0.002

TJP2 isoform 7 (UniProt Q9UDY2)
inactive: [1] 0.019 | filanesib 0.093 | zotarolimus 0.068 | idasanutlin -0.017 | alisertib -0.151 | [2] -0.091 | gefitinib 0.042 | [3] 0.012 | lapatinib 0.008 | pictilisib 0.067 | [4] 0.006 | crizotinib -0.026 | [5] 0.064 | [6] -0.017 | gandotinib -0.089 | [7] 0.071 | doramapimod 0.068 | ispinesib -0.065

THOC6 (UniProt Q86W42)
inactive: [1] -0.025 | filanesib -0.005 | zotarolimus -0.023 | idasanutlin -0.009 | alisertib -0.111 | [2] 0.041 | gefitinib 0.022 | [3] 0.003 | lapatinib -0.033 | pictilisib -0.011 | [4] 0.041 | crizotinib 0.022 | [5] 0.02 | [6] 0.035 | duvelisib 0.023 | gandotinib 0.005 | tozasertib 0.018 | [7] -0.018 | doramapimod 0.033 | ispinesib 0.052

TFR2 (UniProt Q9UP52)
inactive: [1] -0.066 | filanesib 0.011 | zotarolimus -0.06 | idasanutlin 0.035 | alisertib -0.04 | [2] 0.011 | gefitinib -0.035 | [3] 0.041 | lapatinib -0.011 | pictilisib 0.05 | [4] 0.068 | crizotinib -0.182 | [5] -0.001 | [6] -0.016 | gandotinib 0.03 | [7] -0.038 | doramapimod -0.019 | ispinesib -0.097

THOP1 (UniProt P52888)
inactive: [1] 0.047 | filanesib -0.026 | zotarolimus -0.017 | idasanutlin -0.027 | alisertib -0.032 | [2] 0.054 | gefitinib -0.015 | [3] 0.007 | lapatinib -0.019 | pictilisib 0.037 | [4] -0.003 | crizotinib 0.038 | [5] 0.047 | [6] -0.064 | duvelisib 0.039 | gandotinib 0.012 | tozasertib -0.036 | [7] -0.008 | doramapimod -0.02 | ispinesib 0.068

TBL2 (UniProt Q9Y4P3)
inactive: [1] 0.011 | filanesib 0.312 | zotarolimus 0.076 | idasanutlin 0.108 | alisertib 0.045 | [2] 0.019 | gefitinib 0.014 | [3] -0.125 | lapatinib 0.05 | pictilisib -0.033 | [4] -0.067 | crizotinib 0.052 | [5] -0.314 | [6] 0.2 | duvelisib -0.088 | gandotinib 0.185 | tozasertib -0.034 | [7] 0.038 | doramapimod 0.154 | ispinesib -0.191
